Reference: PubChem BioAssay AID504744 (Drosophila RNAi Screening Center, 2011)

Test: 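Uncover factors, including feedback loops, that control dAkt activation in fly cells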 (primary screen)
Cells: Drosophila Kc167 cells
Knock-down reagent: long dsRNA against Drosophila genes, 250 ng dsRNA per well of a 384-well plate
Duration: 3 days of knock-down, then overnight serum-free starvation before stimulation
Conditions: bovine insulin at 387 nM for 10 minutes after 12 h without serum
Detection: 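Per-well phospho-dAkt level from an in-cell fluorescent antibody stain, divided by a DNA-dye signal; log2 residuals turned into z-scores that take cell number into account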
Active means: 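Under insulin, a gene counts as a hit if the average z-score of two replicates lies above 2.5 or below -2.5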
The deposit covers about 23,000 reagents; shown is an unselected part of those that have a named target and a result. Of all reagents, 98 (0.43%) got an active call. 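Only hit calls are given; the phospho-dAkt signals, z-scores and hit direction were not deposited.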 A plus sign joins genes that one reagent is predicted to hit.

no.	Gene	amplicon	Outcome
1	CG17195	DRSC15188	inactive
2	CG12288	DRSC02155	inactive
3	CG11226	DRSC11639	inactive
4	RagC-D (Ras-related GTP binding C/D)	DRSC07239	inactive
5	CG42560 + CG42559	DRSC21873	inactive
6	CG4942	DRSC10462	inactive
7	CG14627	DRSC18630	inactive
8	CG10139	DRSC05972	inactive
9	CG42671	DRSC09093	inactive
10	CG42671	DRSC10321	inactive
11	HisRS (Histidyl-tRNA synthetase)	DRSC19986	inactive
12	MED11 (Mediator complex subunit 11)	DRSC10739	inactive
13	Hex-t2 (Hexokinase testis 2)	DRSC22517	inactive
14	mbo (members only)	DRSC16123	inactive
15	CG42700	DRSC06292	inactive
16	CG42700	DRSC06293	inactive
17	CG12818	DRSC14556	inactive
18	Rab4 + CG42239	DRSC05667	inactive
19	Vha16-4 + CG15614	DRSC07321	inactive
20	Mal-A4 (Maltase A4)	DRSC07236	inactive
21	NaPi-III (Na[+]-dependent inorganic phosphate cotransporter type III)	DRSC10893	inactive
22	NaPi-III (Na[+]-dependent inorganic phosphate cotransporter type III)	DRSC10894	inactive
23	NaPi-III (Na[+]-dependent inorganic phosphate cotransporter type III)	DRSC22953	inactive
24	mrt (martik)	DRSC15484	inactive
25	CG31827 + CG18478	DRSC01958	inactive
26	CG34375	DRSC14684	inactive
27	CG34375	DRSC14685	inactive
28	CG11693	DRSC14353	inactive
29	lft (lowfat)	DRSC02236	inactive
30	PTPMT1 (Protein tyrosine phosphatase, mitochondrial 1)	DRSC14235	inactive
31	CG17065	DRSC20544	inactive
32	CG5131	DRSC02817	inactive
33	CG18139 (retired record) + Hmx	DRSC15307	inactive
34	Cyp4p3 (Cytochrome P450 4p3)	DRSC07374	inactive
35	CG17030	DRSC08503	inactive
36	dar1 (dendritic arbor reduction 1)	DRSC08049	inactive
37	dar1 (dendritic arbor reduction 1)	DRSC08233	inactive
38	Dhit (Double hit)	DRSC07411	inactive
39	CG16786	DRSC04281	inactive
40	CG17754	DRSC18131	inactive
41	Theg (Testicular haploid expressed gene)	DRSC16023	inactive
42	CG2887	DRSC18235	inactive
43	CG14752	DRSC06488	inactive
44	Mpi (Mannose phosphate isomerase)	DRSC16417	inactive
45	CG13063	DRSC09946	inactive
46	GABA-B-R1 (metabotropic GABA-B receptor subtype 1)	DRSC22038	inactive
47	CG7168	DRSC16208	inactive
48	CG42286 (retired record)	DRSC14357	inactive
49	CG10051	DRSC05959	inactive
50	Mst77F (Male-specific transcript 77F)	DRSC11871	inactive
51	feo (fascetto)	DRSC19398	inactive
52	Elo68beta (Elongase 68beta)	DRSC09860	inactive
53	CG6168	DRSC10596	inactive
54	CG8661	DRSC20115	inactive
55	Ada2b (transcriptional Adaptor 2b)	DRSC16531	inactive
56	CG15617	DRSC06570	inactive
57	CG31559	DRSC12172	inactive
58	CG31559	DRSC12270	inactive
59	CG2652	DRSC18501	inactive
60	CG2652	DRSC22576	inactive
61	dally (division abnormally delayed)	DRSC08954	inactive
62	dally (division abnormally delayed)	DRSC11338	inactive
63	CG42557 + CG42558	DRSC13963	inactive
64	CG42557 + CG42558	DRSC16329	inactive
65	Vm34Ca (Vitelline membrane 34Ca)	DRSC03475	inactive
66	CG13484	DRSC10026	inactive
67	alpha-Est7 (alpha-Esterase-7)	DRSC12619	inactive
68	rpk (ripped pocket)	DRSC12386	inactive
69	rpk (ripped pocket)	DRSC21656	inactive
70	Map205 (Microtubule-associated protein 205)	DRSC16732	inactive
71	ms(3)76Cc (male sterile (3) 76Cc)	DRSC11071	inactive
72	ms(3)76Cc (male sterile (3) 76Cc)	DRSC21630	inactive
73	CNBP (CCHC-type zinc finger nucleic acid binding protein)	DRSC04116	inactive
74	CNBP (CCHC-type zinc finger nucleic acid binding protein)	DRSC04419	inactive
75	CNBP (CCHC-type zinc finger nucleic acid binding protein)	DRSC21317	inactive
76	Mps1 (Monopolar spindle 1)	DRSC16273	inactive
77	CG34320 (retired record)	DRSC17682	inactive
78	stv (starvin)	DRSC09796	inactive
79	stv (starvin)	DRSC10111	inactive
80	CG13946	DRSC00364	inactive
81	Rab9	DRSC03281	inactive
82	CG7514	DRSC08597	inactive
83	CG32655	DRSC18925	inactive
84	Oatp30B (Organic anion transporting polypeptide 30B)	DRSC02727	inactive
85	CG34051	DRSC01739	inactive
86	ND-B12 (NADH dehydrogenase (ubiquinone) B12 subunit)	DRSC04060	inactive
87	Tmtc1 (Transmembrane O-mannosyltransferase targeting cadherins 1)	DRSC00147	inactive
88	Tmtc1 (Transmembrane O-mannosyltransferase targeting cadherins 1)	DRSC00151	inactive
89	Tmtc1 (Transmembrane O-mannosyltransferase targeting cadherins 1)	DRSC00314	inactive
90	Tmtc1 (Transmembrane O-mannosyltransferase targeting cadherins 1)	DRSC00411	inactive
91	Flacc (Fl(2)d-associated complex component)	DRSC20040	inactive
92	CG9826	DRSC04570	inactive
93	Syx1A (Syntaxin 1A)	DRSC15359	inactive
94	Syx1A (Syntaxin 1A)	DRSC21554	inactive
95	CG2681	DRSC18464	inactive
96	FoxK (Forkhead box K)	DRSC09859	inactive
97	CG31174	DRSC13518	inactive
98	Cdc16 (Cell division cycle 16)	DRSC16920	inactive
99	hook	DRSC03545	inactive
100	Jon66Cii (Jonah 66Cii)	DRSC10778	inactive
101	CR40354 (pseudo)	DRSC20923	inactive
102	toc (toucan)	DRSC00169	inactive
103	toc (toucan)	DRSC00171	inactive
104	toc (toucan)	DRSC00842	inactive
105	Recs1	DRSC16545	inactive
106	Vamp7 (Vesicle-associated membrane protein 7)	DRSC06599	inactive
107	CG33769	DRSC11716	inactive

Reprinted from the listing, 5 entries:
no.	Gene	amplicon	Outcome
45	CG13063	DRSC09946	inactive
46	GABA-B-R1 (metabotropic GABA-B receptor subtype 1)	DRSC22038	inactive
47	CG7168	DRSC16208	inactive
48	CG42286 (retired record)	DRSC14357	inactive
49	CG10051	DRSC05959	inactive
